These are yes or no findings as the source states them, for the method shown. Binding seen in cells or lysates may run through a third protein. Some binding calls cover weakened binding; strength is not graded here.
B1: PGC7 (protein, UniProt Q8QZY3 1-150)
chain: MEEPSEKVDPMKDPETPQKKDEEDALDDTDVLQPETLVKVMKKLTLNPGVKRSARRRSLRNRIAAVPVENKSEKIRREVQSAFPKRRVRTLLSVLKDPIAKMRRLVRIEQRQKRLEGNEFERDSEPFRCLCTFCHYQRWDPSENAKIGKN

By UniProt entry, the sequences of proteins in these tests, tags left out.
UniProt P13864: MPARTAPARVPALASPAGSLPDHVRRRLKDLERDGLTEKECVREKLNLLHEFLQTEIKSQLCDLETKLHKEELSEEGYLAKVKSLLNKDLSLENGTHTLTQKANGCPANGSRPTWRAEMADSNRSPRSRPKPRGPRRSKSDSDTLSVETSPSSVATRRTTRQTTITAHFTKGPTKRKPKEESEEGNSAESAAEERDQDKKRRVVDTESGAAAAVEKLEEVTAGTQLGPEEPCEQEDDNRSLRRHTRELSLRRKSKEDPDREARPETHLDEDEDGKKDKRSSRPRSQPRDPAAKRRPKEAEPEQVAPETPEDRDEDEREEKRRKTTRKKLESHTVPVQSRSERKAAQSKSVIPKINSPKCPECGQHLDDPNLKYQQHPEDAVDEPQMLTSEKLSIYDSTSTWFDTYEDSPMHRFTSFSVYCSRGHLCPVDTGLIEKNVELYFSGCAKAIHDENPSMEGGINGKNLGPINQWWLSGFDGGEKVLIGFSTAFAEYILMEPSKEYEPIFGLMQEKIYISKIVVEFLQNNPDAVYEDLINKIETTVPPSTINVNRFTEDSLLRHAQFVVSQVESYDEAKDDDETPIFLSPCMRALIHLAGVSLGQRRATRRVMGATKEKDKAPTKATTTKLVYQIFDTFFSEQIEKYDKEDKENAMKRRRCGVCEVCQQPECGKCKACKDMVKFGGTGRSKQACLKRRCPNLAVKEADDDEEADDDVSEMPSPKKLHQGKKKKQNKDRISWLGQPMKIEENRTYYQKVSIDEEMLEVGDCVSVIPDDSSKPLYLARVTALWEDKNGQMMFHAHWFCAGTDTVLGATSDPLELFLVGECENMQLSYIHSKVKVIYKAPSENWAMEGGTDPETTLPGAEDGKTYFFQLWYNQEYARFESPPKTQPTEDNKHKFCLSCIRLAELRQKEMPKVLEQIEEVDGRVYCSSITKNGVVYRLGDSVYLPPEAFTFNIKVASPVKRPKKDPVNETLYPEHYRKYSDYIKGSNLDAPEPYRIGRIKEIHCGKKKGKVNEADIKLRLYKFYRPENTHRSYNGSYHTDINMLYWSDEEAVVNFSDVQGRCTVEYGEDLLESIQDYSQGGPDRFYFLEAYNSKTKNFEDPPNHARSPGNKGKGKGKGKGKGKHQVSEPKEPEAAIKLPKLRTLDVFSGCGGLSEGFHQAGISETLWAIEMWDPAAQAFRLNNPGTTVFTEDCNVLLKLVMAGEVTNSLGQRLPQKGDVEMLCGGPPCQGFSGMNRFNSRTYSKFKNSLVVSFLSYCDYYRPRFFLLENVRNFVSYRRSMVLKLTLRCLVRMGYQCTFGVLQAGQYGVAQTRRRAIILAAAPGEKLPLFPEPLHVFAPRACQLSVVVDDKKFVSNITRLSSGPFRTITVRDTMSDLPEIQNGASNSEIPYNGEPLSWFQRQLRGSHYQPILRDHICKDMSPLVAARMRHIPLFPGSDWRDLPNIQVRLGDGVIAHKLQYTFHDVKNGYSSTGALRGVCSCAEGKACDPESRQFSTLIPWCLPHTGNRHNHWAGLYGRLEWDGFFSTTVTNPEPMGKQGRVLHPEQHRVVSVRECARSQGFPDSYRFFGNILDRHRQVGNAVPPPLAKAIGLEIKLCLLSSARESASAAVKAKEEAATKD
UniProt Q63844: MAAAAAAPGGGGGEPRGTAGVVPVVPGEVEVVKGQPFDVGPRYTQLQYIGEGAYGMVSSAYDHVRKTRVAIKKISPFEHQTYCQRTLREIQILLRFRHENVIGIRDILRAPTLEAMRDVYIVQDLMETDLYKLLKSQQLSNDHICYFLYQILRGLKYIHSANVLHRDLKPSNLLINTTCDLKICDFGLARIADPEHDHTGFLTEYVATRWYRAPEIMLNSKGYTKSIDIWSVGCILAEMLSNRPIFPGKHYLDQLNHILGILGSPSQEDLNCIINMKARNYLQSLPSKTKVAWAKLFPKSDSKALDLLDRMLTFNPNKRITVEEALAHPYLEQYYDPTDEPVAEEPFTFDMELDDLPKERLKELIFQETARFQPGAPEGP
UniProt P63085: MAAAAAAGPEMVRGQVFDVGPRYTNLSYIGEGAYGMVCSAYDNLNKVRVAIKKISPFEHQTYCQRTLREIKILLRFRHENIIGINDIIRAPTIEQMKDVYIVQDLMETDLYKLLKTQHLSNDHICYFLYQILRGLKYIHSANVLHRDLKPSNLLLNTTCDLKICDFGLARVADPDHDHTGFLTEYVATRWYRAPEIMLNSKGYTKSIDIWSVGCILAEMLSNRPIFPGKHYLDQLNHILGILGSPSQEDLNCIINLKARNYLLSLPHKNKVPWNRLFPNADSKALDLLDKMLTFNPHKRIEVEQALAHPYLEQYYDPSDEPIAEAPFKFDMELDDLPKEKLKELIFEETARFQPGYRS

Key:
[1] = target: Flag-DNMT1 fusion protein (mouse DNA methyltransferase (cytosine-5) 1, wild type) (mouse) (UniProt P13864); test: co-IP; HEK293T co-transfected with p3×Flag-CMV-10-DNMT1 and pCMV-HA-ERK1; Flag-DNMT1 captured by anti-Flag antibody, mouse IgG as negative control; blot with anti-Flag and anti-HA; cells treated with DMSO or PD0325901 (PD enhances the interaction)
[2] = target: ERK1 (as tested against PGC7) (mouse) (UniProt Q63844); test: co-IP; PGC7 with ERK1/2 (Supplementary Figure S2a,b); whole cell extracts in IP lysis buffer, antibody overnight at 4 °C, protein A/G plus agarose; cells, tags and bait not told
[3] = target: ERK2 (as tested against PGC7) (mouse) (UniProt P63085); test: as above

| Molecule | binding [1] | binding [2] | binding [3] |
| --- | --- | --- | --- |
| HA-ERK1 (mouse ERK1 from pCMV-HA-ERK1) (from UniProt Q63844 1-380) (enzyme) | binds weakly |  |  |
| B1 |  | no binding | no binding |

Reference: PMC9958980
